Assay results: PubChem BioAssay AID256 (DTP/NCI, 2004)
The list shows only some results of the screen, not a fair sample: it is rich in T/C values a quarter to a half above the control, in often repeated tests (any T/C) and in doses without a T/C. Further doses and runs are listed elsewhere. T/C is the treated group as % of the vehicle group. Some doses have a count of surviving animals in place of a T/C: the source holds a T/C of zero for them, seemingly a mark for toxic or unscored doses. Some survivor counts are full or nearly so, which does not show that the dose was tolerated: the source hardly ever lists a survival T/C far under the control, and the zero likely stands for such cases as well. Survivors were counted at the toxicity check, usually on the fifth day, unless a day is given; later deaths do not show. Schedule codes are those of the source, read here as Q, the interval in days (D) or hours (H), X, the number of doses. Counts like (3×) say how often a value occurs here. Some entries were tested several times; the values are given in rising order. For survival time, the PubChem record calls one and a half times the control and up active, and a quarter to a half above the control has no call in these data; cut-offs in other NCI protocols can differ. Some T/C values carry the count of animals alive at the toxicity check (mostly the fifth day); where none is given, no animal had died by that day.

System: CD2F1 mice, L1210 leukemia ip, survival T/C
Experiment: NCI In Vivo Anticancer Drug Screen. Data for tumor model L1210 Leukemia (intraperitoneal) in CD2F1 (CDF1) mice
Conditions: higher T/C = longer survival
Procedure, shortened: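 In this screen, transplantable tumors were grown in mice given either the compound or its vehicle. Results were expressed as the treated measurement relative to the control measurement.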

[1] = T/C endpoint: mean survival time, dose: 100.0 mg/kg/injection, schedule: Q04DX003 (ip), vehicle: saline with Tween-80
[2] = T/C endpoint: mean survival time, dose: 400.0 mg/kg/injection, schedule: Q04DX003 (ip), vehicle: saline with Tween-80
[3] = T/C endpoint: mean survival time, dose: 200.0 mg/kg/injection, schedule: Q04DX003 (ip), vehicle: saline with Tween-80
[4] = T/C endpoint: mean survival time, dose: 200.0 mg/kg/injection, schedule: Q01DX001 (ip), vehicle: saline with Tween-80
[5] = T/C endpoint: mean survival time, dose: 400.0 mg/kg/injection, schedule: Q01DX001 (ip), vehicle: saline with Tween-80
[6] = T/C endpoint: mean survival time, dose: 200.0 mg/kg/injection, schedule: Q01DX009 (ip), vehicle: Klucel (hydroxypropylcellulose) (HPC)
[7] = T/C endpoint: mean survival time, dose: 50.0 mg/kg/injection, schedule: Q01DX009 (ip), vehicle: saline with Tween-80
[8] = T/C endpoint: mean survival time, dose: 100.0 mg/kg/injection, schedule: Q01DX009 (ip), vehicle: saline with Tween-80
[9] = T/C endpoint: mean survival time, dose: 200.0 mg/kg/injection, schedule: Q01DX009 (ip), vehicle: saline with Tween-80
[10] = T/C endpoint: mean survival time, dose: 400.0 mg/kg/injection, schedule: Q01DX009 (ip), vehicle: saline with Tween-80
[11] = T/C endpoint: median survival time, dose: 50.0 mg/kg/injection, schedule: Q01DX009 (ip), vehicle: saline with Tween-80
[12] = T/C endpoint: median survival time, dose: 100.0 mg/kg/injection, schedule: Q01DX009 (ip), vehicle: saline with Tween-80

CC(=O)ON=C1C=CC(=C(C#N)c2ccccc2)C=C1
survivor count [1]: 6 of 6 | survivor count [2]: 2 of 6

CC1=C(N2CC2C)C(=O)c2c(COC(N)=O)c3n(c2C1=O)CC1NC31 (stereo not given)
T/C (T/C endpoint: mean survival time, dose: 40.0 mg/kg/injection, schedule: Q01DX001 (ip), vehicle: distilled water + Tween-80): 140 % of control | survivor count (T/C endpoint: mean survival time, dose: 80.0 mg/kg/injection, schedule: Q01DX001 (ip), vehicle: distilled water + Tween-80): 5 of 6

N=C(N)SCCc1ccccc1
survivor count (T/C endpoint: mean survival time, dose: 100.0 mg/kg/injection, schedule: Q01DX001 (ip), vehicle: saline): 1 of 3 | survivor count (T/C endpoint: mean survival time, dose: 200.0 mg/kg/injection, schedule: Q01DX001 (ip), vehicle: saline): 0 of 3 | survivor count (T/C endpoint: mean survival time, dose: 400.0 mg/kg/injection, schedule: Q01DX001 (ip), vehicle: saline): 0 of 3

O=C(C=C(C(F)(F)F)C(F)(F)F)c1ccc(Cl)c2ccccc12
survivor count [3]: 6 of 6 | survivor count [2]: 4 of 6

Cc1ccc(C(=O)C=C(C(F)(F)F)C(F)(F)F)cc1
survivor count [1]: 2 of 6 | survivor count [3]: 2 of 6 | survivor count [2]: 1 of 6

COC(OC)c1[nH]c(=O)[nH]c(=O)c1F.[Hg]
survivor count (T/C endpoint: mean survival time, dose: 100.0 mg/kg/injection, schedule: Q04DX003 (ip), vehicle: saline sonified): 1 of 6 | survivor count (T/C endpoint: mean survival time, dose: 200.0 mg/kg/injection, schedule: Q04DX003 (ip), vehicle: saline sonified): 0 of 6 | survivor count (T/C endpoint: mean survival time, dose: 400.0 mg/kg/injection, schedule: Q04DX003 (ip), vehicle: saline sonified): 0 of 6

O=[N+]([O-])c1cccc2c(S(=O)(=O)O)cccc12
survivor count [2]: 3 of 6

N=c1c2c(C(N)=O)cn(C3OC(CO)C(O)C3O)c2ncn1O (stereo not given)
survivor count (T/C endpoint: mean survival time, dose: 2.7 mg/kg/injection, schedule: Q01DX009 (ip), vehicle: saline): 6 of 6 | survivor count (T/C endpoint: mean survival time, dose: 4.0 mg/kg/injection, schedule: Q01DX009 (ip), vehicle: saline): 6 of 6 | survivor count (T/C endpoint: mean survival time, dose: 6.0 mg/kg/injection, schedule: Q01DX009 (ip), vehicle: saline): 5 of 6 | survivor count (T/C endpoint: mean survival time, dose: 9.0 mg/kg/injection, schedule: Q01DX009 (ip), vehicle: saline): 0 of 6 and 4 of 6 | survivor count (T/C endpoint: mean survival time, dose: 13.0 mg/kg/injection, schedule: Q01DX009 (ip), vehicle: saline): 0 of 6 | survivor count (T/C endpoint: mean survival time, dose: 20.0 mg/kg/injection, schedule: Q01DX009 (ip), vehicle: saline): 0 of 6 | survivor count (T/C endpoint: mean survival time, dose: 30.0 mg/kg/injection, schedule: Q01DX009 (ip), vehicle: saline): 0 of 6

Nc1nc(N)c2cc(S(=O)(=O)c3ccccc3)ccc2n1
T/C (T/C endpoint: median survival time, dose: 400.0 mg/kg/injection, schedule: Q01DX009 (ip), vehicle: saline with Tween-80): 134 % of control | T/C (T/C endpoint: median survival time, dose: 800.0 mg/kg/injection, schedule: Q01DX009 (ip), vehicle: saline with Tween-80): 143 % of control

CC(C)(C)N1CCC1C(O)c1ccccc1 (stereo not given)
survivor count [4]: 1 of 6 | survivor count [5]: 0 of 6

CC(=O)OC1=NC(C)c2c1cc(OC(C)=O)[nH]c2=O (stereo not given)
survivor count [6]: 2 of 6 (2×)

N=c1c2ncn(C3CCCC3)c2ncn1OCc1ccccc1
survivor count (T/C endpoint: mean survival time, dose: 200.0 mg/kg/injection, schedule: Q01DX001 (ip), vehicle: other): 0 of 6 | survivor count (T/C endpoint: mean survival time, dose: 400.0 mg/kg/injection, schedule: Q01DX001 (ip), vehicle: other): 0 of 6

COC(=O)c1cc2cc3c(c(O)c2c(=O)o1)OC1(Cc2c(O)c4c(c(O)c2O1)C(=O)C(OC)CC4=O)CC3O (stereo not given)
survivor count [7]: 6 of 6 | survivor count [8]: 6 of 6 | survivor count [9]: 3 of 6 | T/C [5]: 140 % of control | survivor count [10]: 0 of 6

CN(C)CCCN=Cc1cc([N+](=O)[O-])ccc1O.CN(C)CCCN=Cc1cc([N+](=O)[O-])ccc1O.[Ni+2]
survivor count (T/C endpoint: mean survival time, dose: 25.0 mg/kg/injection, schedule: Q04DX002 (ip), vehicle: saline with Tween-80): 3 of 3 | survivor count (T/C endpoint: mean survival time, dose: 100.0 mg/kg/injection, schedule: Q04DX002 (ip), vehicle: saline with Tween-80): 1 of 3

Cc1cc(=O)n2c3c(c4c(cc13)c(CN(C)C)cc(=O)n4C)OC2
T/C [11]: 128 [5 of 6 alive] and 147 % of control | survivor count [12]: 3 of 6

CCCCCCCCCCCCNC(=O)c1ccc[n+](Cc2ccc(Cl)c(Cl)c2)c1
survivor count (T/C endpoint: mean survival time, dose: 25.0 mg/kg/injection, schedule: Q01DX009 (ip), vehicle: saline with Tween-80): 2 of 6 | survivor count [7]: 2 of 6 | survivor count [1]: 1 of 6 | survivor count [3]: 0 of 6 | survivor count [2]: 0 of 6

COc1ccc(SC(=O)N(C)C)cc1
survivor count [9]: 3 of 6 | survivor count [10]: 3 of 6

Oc1ccc2ccccc2c1
survivor count (T/C endpoint: mean survival time, dose: 100.0 mg/kg/injection, schedule: Q04DX003 (ip), vehicle: Klucel (hydroxypropylcellulose) (HPC)): 0 of 6 | survivor count (T/C endpoint: mean survival time, dose: 200.0 mg/kg/injection, schedule: Q04DX003 (ip), vehicle: Klucel (hydroxypropylcellulose) (HPC)): 0 of 6 | survivor count (T/C endpoint: mean survival time, dose: 400.0 mg/kg/injection, schedule: Q04DX003 (ip), vehicle: Klucel (hydroxypropylcellulose) (HPC)): 0 of 6

CCNC(=O)Nc1nc2ccccc2[nH]1
survivor count [8]: 3 of 3 | survivor count [9]: 1 of 3

CCC(/C=C1\Oc2ccc(-c3ccccc3)cc2N1CC)=C\c1oc2ccc(-c3ccccc3)cc2[n+]1CC
survivor count (T/C endpoint: mean survival time, dose: 6.6 mg/kg/injection, schedule: Q01DX009 (ip), vehicle: other): 3 of 6 | survivor count (T/C endpoint: mean survival time, dose: 10.0 mg/kg/injection, schedule: Q01DX009 (ip), vehicle: other): 0 of 6 | survivor count (T/C endpoint: mean survival time, dose: 15.0 mg/kg/injection, schedule: Q01DX009 (ip), vehicle: other): 0 of 6 | survivor count (T/C endpoint: mean survival time, dose: 75.0 mg/kg/injection, schedule: Q01DX001 (ip), vehicle: other): 0 of 6 | survivor count (T/C endpoint: mean survival time, dose: 150.0 mg/kg/injection, schedule: Q01DX001 (ip), vehicle: other): 0 of 6 | survivor count (T/C endpoint: mean survival time, dose: 300.0 mg/kg/injection, schedule: Q01DX001 (ip), vehicle: other): 0 of 6

COc1ccc(/C=N/NC(=O)CNC(=O)Nc2cccc(Cl)c2)cc1
survivor count [7]: 3 of 3

C/C=C/CNc1ccccc1
survivor count [2]: 5 of 6

CCOC(=O)c1ncc(Cl)cc1N
survivor count (T/C endpoint: mean survival time, dose: 100.0 mg/kg/injection, schedule: Q01DX009 (ip), vehicle: Klucel (hydroxypropylcellulose) (HPC)): 1 of 6 | survivor count [6]: 0 of 6

Nc1ncnc2c1ncn2C(C=O)OC(C=O)CO (stereo not given)
T/C (T/C endpoint: mean survival time, dose: 70.0 mg/kg/injection, schedule: Q01DX001 (ip), vehicle: saline): 141 % of control | survivor count (T/C endpoint: mean survival time, dose: 140.0 mg/kg/injection, schedule: Q01DX001 (ip), vehicle: saline): 4 of 7 | survivor count (T/C endpoint: mean survival time, dose: 280.0 mg/kg/injection, schedule: Q01DX001 (ip), vehicle: saline): 0 of 7

O=C(C=C(C(F)(F)F)C(F)(F)F)c1cccc(S(=O)(=O)F)c1
survivor count [4]: 3 of 6 | survivor count [5]: 0 of 6

CC(C)c1cc(C(=O)O)c(O)c(C(C)C)c1.CC(C)c1cc(C(=O)O)c(O)c(C(C)C)c1.[Cu]
survivor count [11]: 3 of 6 | survivor count [12]: 0 of 6

CNC(=S)NCc1ccc(C(=O)NC(C)C)cc1
survivor count (T/C endpoint: mean survival time, dose: 800.0 mg/kg/injection, schedule: Q01DX009 (ip), vehicle: other): 1 of 6

CC(C)(C)N1CCCC1
survivor count (T/C endpoint: mean survival time, dose: 200.0 mg/kg/injection, schedule: Q04DX003 (ip), vehicle: acetone): 0 of 6 | survivor count (T/C endpoint: mean survival time, dose: 400.0 mg/kg/injection, schedule: Q04DX003 (ip), vehicle: acetone): 0 of 6

CCOC(=O)C[P+](c1ccccc1)(c1ccccc1)c1ccccc1
survivor count (T/C endpoint: mean survival time, dose: 25.0 mg/kg/injection, schedule: Q04DX003 (ip), vehicle: saline with Tween-80): 6 of 6 | survivor count (T/C endpoint: mean survival time, dose: 50.0 mg/kg/injection, schedule: Q04DX003 (ip), vehicle: saline with Tween-80): 3 of 6 | survivor count [1]: 0 of 6 | survivor count [3]: 0 of 6
